# Test results published in PubChem BioAssay AID1508600 (Functional Genomics Laboratory (NCATS/FGL), 2020).
# Out of some 53,000 sequences screened, about 3,700 (7%) were called active.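 Rule for the calls: active = gene knockdowns whose robust z-score for IL-1 alpha signal is at least 2 or at most -2, so actives lie on both sides; inactive = the rest.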 This is one part of the list.
# Assay: Components of the Cytosolic LPS Sensing Pathway: Gene Identification via Genome-wide siRNA Screen;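 note: robust z of the log signal after scaling to non-targeting control siRNA wells of the plate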
# Conditions: RAW264.7 macrophages, IL-1a HTRF, actives lie on both sides, screened at 100 nM (by protocol), cells primed 5 h with Pam3CSK4 first
# Outline: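 Knockdown: 100 nM siRNA, 48h, RAW264.7. Stimulation: Pam3CSK4 5 h, then LipidA via TransIT-TKO 24 h. Output: supernatant IL-1a HTRF, negative-control-normalized, log robust z-score; viability by CellTiter-Glo.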
row,Sequence,z-score
1,GGACUAUAAAAUGUCAUGGTT against Etv2,inactive: 0.00467
2,GGACAGUUUACUCCAGAUATT against Foxc1,active: 2.84
3,GGAAGCAGAUGCUAUUUAUTT against Prpf6,inactive: -1.49
4,GCUAUCGGGUAUGGUUGCUTT against Prrxl1,inactive: 0.153
5,CCAUAUGAAGGCGCAUGGATT against Zfp516,inactive: -0.771
6,GGUACUGAGUGUGUUUUGCTT against Olfr1364,inactive: -0.00522
7,GCACUGUAUUCUUGAGCACTT against 1700020L24Rik,active: 2.06
8,CCACAUGGAACCACUAACUTT against Wnt11,inactive: -0.357
9,GGAUGUACCACCUUUCUGGTT against Klhl6,inactive: -1.28
10,GGAUUUCAACAUCUAUGGCTT against Tpra1,inactive: -1.9
11,GCUUGUCCUUUUUAGACAATT against Ipmk,inactive: -0.0846
12,CCGCUUCAGAUCUUUCGAGTT against Dclk1,inactive: -1.44
13,GGACUUUCACAGACCACUUTT against Rgma,inactive: 0.999
14,GGAGUCAAGCUAGAAGUUUTT against Cr1l,inactive: -0.9
15,GGCCAGCUGAGCUUAAAGATT against Ccna2,inactive: -0.954
16,GCCCUCUCCAAACAUUGAATT against Neo1,inactive: 0.0936
17,GGCCAUGGGUAUUAAUGACTT against Dhx8,inactive: -1.82
18,GGUGAAGGUGCCUUCCAAATT against Il27ra,active: 2.91
19,CCGUCAUACUCCGUGAUUCTT against Samd11,inactive: 0.193
20,GCUACCUGUCUGGACAUUUTT against Gfra3,inactive: 0.421
21,GGCUCGUUCCAACCCUUUATT against Dbx1,inactive: -0.56
22,CGAAUUCAUACCAAGAAAGTT against Myo3a,inactive: 0.477
23,GGAAGAAAUGGAAUUGAAGTT against Pcdhga6,inactive: 0.649

row,Sequence,z-score
1,GCCAAUGAAAAACACCACUTT against Adam12,inactive: -0.765
2,GGCCAGGUGUUUAAUCUCATT against 9930104L06Rik,inactive: 1.16
3,GCAAAAAAUCACUUCGAGUTT against Mgat4a,inactive: -0.377
4,CCCUGACAGAAGUGGUGAATT against Pik3r5,inactive: -0.763
5,GCUGUUAUCAACUUACUAATT against Rpe,inactive: 0.34
6,GGACAGCAUGAACUAACCCTT against Ednra,inactive: -0.672
7,CCACCAGAUACAUAUUUGUTT against Gnpnat1,inactive: -0.352
8,GCAGCCAAGUGGGUAACUUTT against Nicn1,inactive: 0.474
9,CCAGCAAAUAUCCUAGUAATT against Cdk19,inactive: 0.111
10,GGCUCACUCUCCAUUCUACTT against Asb6,inactive: -0.902
11,CAAUGACAGCAGAUGACGUTT against Crabp2,inactive: 0.0834
12,CCGGAUUCGAGAGGUGAUGTT against Lrrc52,inactive: 0.0804
13,GCUACUUAUCUGUUGGAAUTT against Nlrp4f,inactive: 0.755
14,GGGUUAAACCACAUAUCCATT against Spata9,inactive: -1.06
15,GGAAAAUGAGCUGAGGAAATT against Fmnl2,inactive: -0.184
16,GGAUAGACACUAGGAUCCUTT against Pdcd1lg2,inactive: 0.721
17,GGUUGAUGUGCUACAAGUCTT against Arhgef38,inactive: 1.76
18,GGAACGUGGAUCUUUUUAUTT against Wiz,active: 2.42
19,GGCAGCAGUGAAGAAAGUATT against Olfr131,inactive: -1.97
20,GGGUGAAAUAUUCUAUUCATT against Zfp711,inactive: 1.72
21,CGCGGUAAAUACAAGGAGGTT against Klc4,inactive: 0.119
22,GCUAUAAUUUGACAGUUAGTT against Lrba,inactive: 0.0367
23,GGAAAUAAGAAUGUAGUGATT against Ahcyl1,inactive: -1.65

# Reformatted: entries from further up
row	Sequence	z-score
14	GGAGUCAAGCUAGAAGUUUTT against Cr1l	inactive: -0.9
15	GGCCAGCUGAGCUUAAAGATT against Ccna2	inactive: -0.954

# The listing continues.

row,Sequence,z-score
1,GCAGUUGAUGAUAAUGUGATT against Pot1b,inactive: -0.0269
2,GGGUUGUUUAAAAGGCCUUTT against Tmed2,inactive: 1.12
3,GGAAAGUUACAACAGAUAATT against Pkn2,inactive: 0.215
4,CCACCUUCUAUCAGCAAAUTT against 4930433I11Rik,inactive: -0.863
5,GCUGAAGAAGUGCUCUUCUTT against Rarres2,inactive: -0.78
6,GGACUAGCAAGCUCUUCAGTT against Fancd2,inactive: -0.578
7,GGAGACAAUGGACAAGAAGTT against Dnal4,inactive: 0.272
8,CCACGAGGAGCUCAUUUUCTT against Dhfr,inactive: 0.385
9,GGUCAUGCUCAUCUCCUCCTT against Nsmf,inactive: 0.438
10,GGUUUGUCGAAUUGUUGUATT against Ostn,inactive: 0.148
11,GCUGUACACAGUGAGGAAGTT against Gcat,active: 5.42
12,GGACAUACAAAUCAGGUGGTT against C2cd2,inactive: -0.934
13,GUUAGGUGACUACACUACATT against Zfp644,inactive: -0.8
14,CCAGGAAUCUGAGAUGAUGTT against Fam174c,inactive: -1.02
15,GCGGCAGAUCUUCGAUUUCTT against Nkain1,inactive: 0.168
16,GGAAGUAAGAGACUGUGAGTT against Nt5c3b,inactive: 0.587
17,GGAGAUCCUAGGCUUGAACTT against Vsx2,inactive: 0.279
18,GCUCUACUGCUUCUUAGUCTT against Olfr965,active: -2.4
19,GGGUGACAUUGUCUAUAUCTT against Sorbs3,inactive: 0.171
20,GCAUAACAAGCAACUUAAGTT against Bms1,inactive: 1.05
21,GGACCUCAAAGACAGAGAUTT against Manf,inactive: -0.845
22,CCCGUUCGUGCAUGAGUUATT against Lpcat4,inactive: 0.532

# 4 entries from above, as tab-separated lines:
row	Sequence	z-score
6	GGACUAGCAAGCUCUUCAGTT against Fancd2	inactive: -0.578
7	GGAGACAAUGGACAAGAAGTT against Dnal4	inactive: 0.272
8	CCACGAGGAGCUCAUUUUCTT against Dhfr	inactive: 0.385
9	GGUCAUGCUCAUCUCCUCCTT against Nsmf	inactive: 0.438
